Assays:
[1] = Granularity of the green layer in a neutral exposure, RMS method; conditions: TABLE 2, 48 micrometer aperture, density 1.2 log exposure units from the speed point, compound at 0.0806 mmol/m^2 in Layer 9
Method: Surfactants, coating aids, emulsion addenda (including 4-hydroxy-6-methyl-1,3,3a,7-tetra-azaindene), sequestrants, thickeners, lubricants, matte and tinting dyes were added to the appropriate layers as is common in the art. Formulae for the identified compounds are provided at the end of these examples. • Layer 1 (Antihalation layer): gelatin at 1.08, colloidal gray silver at 0.150; ILS-1 at 0.097; DYE-1 at 0.029; DYE-2 at 0.065; DYE-3 at 0.021; CH-1 at 0.025 and UV-1 at 0.075. • Layer 2 (Slow cyan layer): a blend of two red-sensitized (all with a mixture of RSD-1 and RSD-2) tabular silver iodobromide emulsions: (i) 0.81×0.11 μm, 4.5 mol % I at 0.400, (ii) 0.62×0.111 μm, 4.1 mol % iodide at 0.175; cyan dye-forming couplers C-1 at 0.248 and C-2 at 0.236; bleach accelerator-releasing coupler B-1 at 0.086; image-modifier DIR-1 at 0.032; OxDS-1 at 0.010 and gelatin at 1.08. • Layer 3 (Mid cyan layer): a red-sensitized (with a mixture of RSD-1 and RSD-2) iodobromide tabular emulsion (1.44×0.13 μm, 3.7 mol % I) at 0.572; C-1 at 0.265; C-2 at 0.103; B-1 at 0.011; DIR-2 at 0.043; masking coupler MC-1 at 0.022 and gelatin at 1.08. • Layer 4 (Fast cyan layer): a red-sensitized (with a mixture of RSD-1, RSD-2 and RSD-3) iodobromide tabular emulsion (2.41×0.13 μm, 3.7 mol % I) at 1.286; C-1 at 0.163; DIR-2 at 0.0.054; B-1 at 0.008 and gelatin at 1.08.
Layer 5 (Ultra-fast cyan layer): a red-sensitized (with a mixture of RSD-1, RSD-2 and RSD-3) iodobromide tabular emulsion (3.87×0.13 μm, 3.7 mol % I) at 1.180; C-2 at 0.175; DIR-3 at 0.060; DIR-4 at 0.001 and gelatin at 1.08. • Layer 6 (Interlayer): ILS-1 at 0.075 and gelatin at 1.08. • Layer 7 (Slow magenta layer): a blend of two green-sensitized (both with a mixture of GSD-1 and GSD-2) silver iodobromide tabular emulsions: (i) 1.17×0.12 μm, 4.5 mol % iodide at 0.156 and (ii) 0.62×0.111 μm, 2.6 mol % iodide at 0.573; magenta dye-forming coupler M-1 at 0.300; MC-2 at 0.090, DIR-5 at 0.032, ILS-1 at 0.011 and gelatin at 1.400. • Layer 8 (Mid magenta layer): a blend of two green-sensitized (both with a mixture of GSD-1 and GSD-2) silver iodobromide tabular emulsions: (i) 2.46×0.13 μm, 3.7 mol % iodide at 0.534 and (ii) 1.45×0.13 μm, 3.7 mol % iodide at 0.370; M-1 at 0.089; MC-2 at 0.086; DIR-5 at 0.025, ILS-1 at 0.012 and gelatin at 1.438. • Layer 9 (Fast magenta layer): two parts mixed together at a 1:1 ratio just prior to coating; Part A (dispersion melt): M-1 at 0.104; DIR-5 at 0.011; ILS-1 at 0.014 and gelatin at 0.420 and Part B (emulsion melt): a green-sensitized (with a mixture of GSD-1 and GSD-2) silver iodobromide tabular emulsion (2.90×0.13 μm, 3.7 mol % iodide) at 1.240; MC-2 at 0.021; DIR-6 at 0.003 and gelatin at 1.076. • Layer 10 (Interlayer): ILS-1 at 0.182 and gelatin at 0.700. • Layer 11 (Slow yellow layer): a blend of three blue-sensitized (all with BSD-1 and BSD-2) tabular silver iodobromide emulsions (i) 2.41×0.1 μm, 2.0 mol % I at 0.402, (ii) 1.02×0.137 μm, 2.0 mol % I at 0.136, (iii) 0.62×0.111 μm, 2.6 mol % I at 0.505; yellow dye-forming coupler Y-1 at 0.850; DIR-1 at 0.022; DIR-7 at 0.038; B-1 at 0.009 and gelatin at 1.90. • Layer 12 (Fast yellow layer): a blue-sensitized (with BSD-1 and BSD-2) tabular silver iodobromide emulsion, 3.72×0.131 μm, 3.7 mol % I at 0.070 and a blue-sensitized (with BSD-1) 3-D silver iodobromide emulsion, 1.21 μM diameter), 9.7 mol % I at 1.055; Y-1 at 0.312; DIR-7 at 0.065; B-1 at 0.011, stabiliser S-1 at 0.008 and gelatin at 1.280. • Layer 13 (WV Filter Layer): silver bromide Lippman emulsion at 0.215; UV-1 and UV-2 both at 0.108 and gelatin at 0.700. • Layer 14 (Protective overcoat): gelatin at 0.888 and bis(vinylsulfonyl)methane hardener at 1.75% of total gelatin weight.
All comparative and heterocyclic compounds for use in the invention were dispersed in twice their own weight in N,N-dibutyllauramide, unless otherwise noted. The resulting dispersions were stirred at 40 C for at least 1 h before coating. […]

[2] = Photographic speed of multilayer films, stepped neutral exposure, C-41 process; conditions: TABLE 2, compound at 0.0806 mmol/m^2 in Part A of Layer 9, difference in speed versus check
Method: Surfactants, coating aids, emulsion addenda (including 4-hydroxy-6-methyl-1,3,3a,7-tetra-azaindene), sequestrants, thickeners, lubricants, matte and tinting dyes were added to the appropriate layers as is common in the art. Formulae for the identified compounds are provided at the end of these examples. • Layer 1 (Antihalation layer): gelatin at 1.08, colloidal gray silver at 0.150; ILS-1 at 0.097; DYE-1 at 0.029; DYE-2 at 0.065; DYE-3 at 0.021; CH-1 at 0.025 and UV-1 at 0.075. • Layer 2 (Slow cyan layer): a blend of two red-sensitized (all with a mixture of RSD-1 and RSD-2) tabular silver iodobromide emulsions: (i) 0.81×0.11 μm, 4.5 mol % I at 0.400, (ii) 0.62×0.111 μm, 4.1 mol % iodide at 0.175; cyan dye-forming couplers C-1 at 0.248 and C-2 at 0.236; bleach accelerator-releasing coupler B-1 at 0.086; image-modifier DIR-1 at 0.032; OxDS-1 at 0.010 and gelatin at 1.08. • Layer 3 (Mid cyan layer): a red-sensitized (with a mixture of RSD-1 and RSD-2) iodobromide tabular emulsion (1.44×0.13 μm, 3.7 mol % I) at 0.572; C-1 at 0.265; C-2 at 0.103; B-1 at 0.011; DIR-2 at 0.043; masking coupler MC-1 at 0.022 and gelatin at 1.08. • Layer 4 (Fast cyan layer): a red-sensitized (with a mixture of RSD-1, RSD-2 and RSD-3) iodobromide tabular emulsion (2.41×0.13 μm, 3.7 mol % I) at 1.286; C-1 at 0.163; DIR-2 at 0.0.054; B-1 at 0.008 and gelatin at 1.08. […]

| Compound | Granularity (×10^3) [1] | Δ Speed (stops) [2] [stops] |
| --- | --- | --- |
| CCC(C)(C)c1ccc(OCC(=O)Nc2ccc(S(=O)(=O)Nc3nccs3)cc2)c(C(C)(C)CC)c1 [CC3, reference compound] | 20 ×10^3 |  |
| CCCCCCCCCCCCCCCc1cccc(OC(CC)C(=O)Nc2ncc(C=O)s2)c1 (stereo not shown) [SGA6] | 20 ×10^3 | 0.23 |
| CCCCCCCCCCCCCCCc1cccc(OC(CC)C(=O)Nc2ncc(SCCCC)s2)c1 (stereo not shown) [SGA7] | 20 ×10^3 | 0.17 |
| CCCCCCCCCCCCCCCc1cccc(OC(CC)C(=O)Nc2ncc(S(=O)(=O)CCCC)s2)c1 (stereo not shown) [SGA8] | 20 ×10^3 |  |
| CCC(C)(C)c1ccc(OCC(=O)Nc2ccc(S(=O)(=O)Nc3nccc(C)n3)cc2)c(C(C)(C)CC)c1 [SGA32] | 21 ×10^3 | 0.20 |
| CCCCCCCCCCCCCCCc1cccc(OC(CC)C(=O)Nc2ccc(SCCCC)nn2)c1 (stereo not shown) [SGA42] | 20 ×10^3 | 0.20 |

From patent US7354701B2, “Photographic element with speed-enhancing compound” (Eastman Kodak Company, priority 2003, dated 2008)
